Results deposited as PubChem BioAssay AID504791 (Drosophila RNAi Screening Center, 2011).
The screen tested about 23,000 reagents; this is an unselected part of those that have a named target and a result. Over the whole deposit, 199 (0.86%) got an active call. 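Plate-scaled ratios behind the calls are not deposited; printed light signals are raw; many rows marked increased or decreased are still called inactive.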 Unmarked entries are inactive. Names joined by + are all predicted targets of the reagent.

- Aim: 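Genes whose knock-down strengthens or weakens small-RNA reporter silencing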 (primary screen)
- Cells: Drosophila S2-derived reporter cells
- Knock-down reagent: long dsRNA against Drosophila genes, about 150-250 ng dsRNA per well (siRNA assay); about 80-120 ng (miRNA assay)
- Timing: about 5 days (siRNA assay); about 4 days (miRNA assay)
- Treatment: copper sulfate induction of reporters: 25 µM (siRNA assay); 200 mM stated (miRNA assay), 1-2 days before reading
- Measurement: 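Per-well ratio of Renilla over firefly light, expressed relative to that plate's average ratio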
- Scale: siRNA reporter hit score: higher = 3 marks a strong hit with raised ratio; -3 a strong hit with lowered ratio
- Units: stable assay Renilla, run 1 in luminescence; stable assay firefly, run 1 in luminescence
- Rule for the call: 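First-pass picks had plate-scaled ratios over 1.5 for the siRNA assay, over 1.6 for the miRNA assay, or under 0.6; two distinct dsRNAs had to score alike on retest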

| Target gene | amplicon | siRNA reporter hit score | stable siRNA reporter change | miRNA reporter change | stable assay Renilla, run 1 | stable assay firefly, run 1 |
| --- | --- | --- | --- | --- | --- | --- |
| DIP-beta (Dpr-interacting protein beta) | DRSC20461 | – | – | – | 3023 | 2.67e5 |
| DIP-beta (Dpr-interacting protein beta) | DRSC20489 | – | – | – | 5215 | 4.36e5 |
| DIP-beta (Dpr-interacting protein beta) | DRSC20490 | – | – | – | 5555 | 3.22e5 |
| DIP-beta (Dpr-interacting protein beta) | DRSC20505 | – | – | – | 5627 | 5.61e5 |
| E2f2 (E2F transcription factor 2) | DRSC03320 | – | – | – | 11799 | 6.59e5 |
| CG15201 | DRSC19648 | – | – | – | 4675 | 3.86e5 |
| Cht7 + tRNA:Cys-GCA-1-4 + tRNA:Lys-CTT-1-13 | DRSC08021 | – | – | – | 4647 | 3.44e5 |
| Naa30B (N(alpha)-acetyltransferase 30 B) | DRSC08245 | – | – | – | 6139 | 3.62e5 |
| CG13408 | DRSC13534 | – | – | – | 4975 | 3.88e5 |
| CG13408 | DRSC14584 | – | – | – | 7895 | 4.12e5 |
| CG7970 | DRSC08605 | – | – | – | 8537 | 3.74e5 |
| Art1 (Arginine methyltransferase 1) | DRSC16063 | – | – | – | 9347 | 4.73e5 |
| Rcd2 (Reduction in Cnn dots 2) | DRSC11756 | – | – | – | 7670 | 3.45e5 |
| Ir20a (Ionotropic receptor 20a) | DRSC20506 | – | – | – | 5148 | 3.35e5 |
| CG11808 | DRSC06088 | – | – | – | 12512 | 4.90e5 |
| AstA-R2 (Allatostatin A receptor 2) | DRSC14171 | – | – | – | 6327 | 3.20e5 |
| Grl36a (Gustatory receptor-like 36a) | DRSC21748 | – | – | – | 7938 | 4.58e5 |
| mat (materazzi) | DRSC08376 | – | – | – | 5552 | 4.26e5 |
| mat (materazzi) | DRSC22841 | – | – | – | 4559 | 3.43e5 |
| CG6656 | DRSC16085 | – | – | – | 8487 | 4.10e5 |
| CG33702 | DRSC08986 | – | – | – | 4515 | 2.88e5 |
| Seipin | DRSC18654 | – | – | – | 6571 | 3.81e5 |
| Uro (Urate oxidase) | DRSC03469 | – | – | – | 7834 | 5.27e5 |
| slx1 (nuclease slx1) | DRSC12290 | – | – | – | 7400 | 3.74e5 |
| CG42254 (retired record) | DRSC06194 | – | – | – | 6340 | 3.41e5 |
| PICK1 (Protein interacting with C kinase 1) | DRSC02936 | – | – | – | 7048 | 5.04e5 |
| CG10467 | DRSC09728 | – | – | – | 5699 | 3.77e5 |
| CG31862 | DRSC01245 | – | – | – | 4994 | 3.85e5 |
| dpr2 (defective proboscis extension response 2) | DRSC02370 | – | – | – | 7386 | 4.32e5 |
| dpr2 (defective proboscis extension response 2) | DRSC02371 | – | – | – | 7403 | 4.68e5 |
| Bug22 (Basal body up regulated gene 22) | DRSC02842 | – | – | – | 8470 | 3.98e5 |
| CG14205 | DRSC19560 | – | – | – | 5544 | 3.81e5 |
| CG14205 | DRSC28253 | – | – | reporter ratio raised past the hit cutoff | – | – |
| ItgaPS5 (Integrin alphaPS5 subunit) | DRSC04501 | – | – | – | 6118 | 4.09e5 |
| CG32551 | DRSC19259 | – | – | – | 4239 | 3.73e5 |
| DIP1 (DISCO Interacting Protein 1) | DRSC20818 | – | reporter ratio raised past the hit cutoff | – | 1416 | 60479 |
| mus81 | DRSC18180 | – | – | – | 5251 | 2.96e5 |
| mus81 | DRSC18644 | – | – | – | 5579 | 3.81e5 |
| CG30275 | DRSC04163 | – | – | – | 6847 | 4.62e5 |
| CG9143 | DRSC07338 | – | – | – | 9687 | 3.61e5 |
| Sf3b2 (Splicing factor 3b subunit 2) | DRSC00619 | – | – | reporter ratio lowered past the hit cutoff (active) | 9727 | 9.06e5 |
| jhamt (juvenile hormone acid methyltransferase) | DRSC01985 | – | – | – | 7236 | 3.89e5 |
| Mdr49 (Multi drug resistance 49) | DRSC07466 | – | – | reporter ratio lowered past the hit cutoff (active) | 7663 | 5.18e5 |
| nes (nessy) | DRSC11375 | – | – | – | 8132 | 4.59e5 |
| tra (transformer) | DRSC11405 | – | – | – | 8138 | 3.50e5 |
| Ets97D (Ets at 97D) | DRSC16665 | – | – | – | 5799 | 4.19e5 |
| Mpv17 (Mitochondrial inner membrane protein MPV17) | DRSC17198 | – | – | – | 5987 | 3.32e5 |
| slmo + CG34179 | DRSC03143 | – | – | reporter ratio raised past the hit cutoff | 3.11e5 | 5.97e5 |
| brat (brain tumor) | DRSC03497 | – | – | – | 18421 | 1.25e6 |
| Arp5 (Actin-related protein 5) | DRSC16350 | – | – | – | 9539 | 4.05e5 |
| defl (deflated) | DRSC10300 | -3 | – | – | 9215 | 6.93e5 |
| CG5302 (retired record) | DRSC15764 | – | – | – | 6727 | 3.90e5 |
| CG5302 (retired record) | DRSC15765 | – | – | – | 7194 | 4.24e5 |
| CG5302 (retired record) | DRSC22671 | – | – | – | 4563 | 5.15e5 |
| CG3224 | DRSC18295 | – | – | – | 5975 | 3.28e5 |
| CG11037 | DRSC11631 | – | – | – | 6682 | 3.51e5 |
| CG1603 | DRSC06602 | – | – | reporter ratio lowered past the hit cutoff | 8859 | 2.15e6 |

Ordered by “stable assay Renilla, run 1” (low to high): some entries from above.
| Target gene | amplicon | siRNA reporter hit score | stable siRNA reporter change | miRNA reporter change | stable assay Renilla, run 1 | stable assay firefly, run 1 |
| --- | --- | --- | --- | --- | --- | --- |
| CG33702 | DRSC08986 | – | – | – | 4515 | 2.88e5 |
| CG42254 (retired record) | DRSC06194 | – | – | – | 6340 | 3.41e5 |
| Seipin | DRSC18654 | – | – | – | 6571 | 3.81e5 |
| PICK1 (Protein interacting with C kinase 1) | DRSC02936 | – | – | – | 7048 | 5.04e5 |
| slx1 (nuclease slx1) | DRSC12290 | – | – | – | 7400 | 3.74e5 |
| Uro (Urate oxidase) | DRSC03469 | – | – | – | 7834 | 5.27e5 |
| CG6656 | DRSC16085 | – | – | – | 8487 | 4.10e5 |
